According to patent US7276258B2, “Herbal extract and compound lupinoside and its analogues as anti-diabetic type II drugs from plant Pueraria tuberosa” (Council of Scientific & Industrial Research, priority 2004, dated 2007):
Entries after “also recorded” stand apart in the source; their conditions may differ. At least one structure is not confirmed: it was looked up by name or label, or the drawing left a doubt.

Amino acid sequences for entries named in this document (tags omitted). Residues count along the entry.
UniProt P15208, 28-748 limits assumed: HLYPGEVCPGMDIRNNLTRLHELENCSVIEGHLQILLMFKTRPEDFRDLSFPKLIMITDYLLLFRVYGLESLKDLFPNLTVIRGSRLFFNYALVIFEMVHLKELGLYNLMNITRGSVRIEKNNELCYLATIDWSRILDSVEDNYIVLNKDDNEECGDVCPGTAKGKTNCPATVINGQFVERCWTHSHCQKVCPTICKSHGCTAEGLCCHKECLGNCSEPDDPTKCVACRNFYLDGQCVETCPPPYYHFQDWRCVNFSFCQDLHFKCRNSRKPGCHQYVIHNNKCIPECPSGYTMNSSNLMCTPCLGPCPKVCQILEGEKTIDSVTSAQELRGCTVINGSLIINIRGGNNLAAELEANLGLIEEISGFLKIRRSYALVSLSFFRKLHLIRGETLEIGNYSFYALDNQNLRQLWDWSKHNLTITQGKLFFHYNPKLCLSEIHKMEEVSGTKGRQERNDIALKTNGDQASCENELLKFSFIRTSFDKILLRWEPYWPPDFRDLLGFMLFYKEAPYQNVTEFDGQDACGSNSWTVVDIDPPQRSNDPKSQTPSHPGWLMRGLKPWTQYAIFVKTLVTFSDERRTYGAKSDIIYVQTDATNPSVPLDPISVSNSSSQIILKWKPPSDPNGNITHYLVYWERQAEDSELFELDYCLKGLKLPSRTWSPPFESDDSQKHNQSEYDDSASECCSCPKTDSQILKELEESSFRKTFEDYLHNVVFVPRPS
UniProt P15208, 753-1372 partner limits assumed: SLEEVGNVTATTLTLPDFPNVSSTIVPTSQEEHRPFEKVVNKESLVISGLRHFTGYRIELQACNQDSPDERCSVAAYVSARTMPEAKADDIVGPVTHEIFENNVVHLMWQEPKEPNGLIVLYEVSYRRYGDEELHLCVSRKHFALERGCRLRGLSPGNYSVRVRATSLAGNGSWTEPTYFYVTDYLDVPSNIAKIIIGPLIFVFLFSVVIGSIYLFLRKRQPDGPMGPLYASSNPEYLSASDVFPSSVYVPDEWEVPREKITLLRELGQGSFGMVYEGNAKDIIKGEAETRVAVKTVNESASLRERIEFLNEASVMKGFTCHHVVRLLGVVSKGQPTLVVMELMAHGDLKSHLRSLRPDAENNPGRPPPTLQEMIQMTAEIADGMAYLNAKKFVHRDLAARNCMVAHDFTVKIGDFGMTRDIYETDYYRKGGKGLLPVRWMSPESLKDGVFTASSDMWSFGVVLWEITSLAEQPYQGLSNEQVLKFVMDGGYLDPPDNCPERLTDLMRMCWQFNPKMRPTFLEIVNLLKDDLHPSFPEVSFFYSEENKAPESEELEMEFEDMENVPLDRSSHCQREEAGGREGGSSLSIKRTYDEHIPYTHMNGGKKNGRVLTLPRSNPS

What was measured:
insulin receptor β (IRβ) = test: Insulin-stimulated IRβ tyrosine phosphorylation in 3T3L1 adipocytes (immunoprecipitation, anti-p-Tyr blot); assay type: cell-based; details: 3T3L1 cells, 0.75 mM FFA 24 h, then insulin
IRS-1 = test: Insulin-stimulated IRS-1 phosphorylation in 3T3L1 adipocytes (immunoblot); assay type: cell-based; details: 3T3L1 cells, 0.75 mM FFA 24 h, then insulin
PI3 kinase p 85 α = test: Insulin-stimulated PI3 kinase phosphorylation in 3T3L1 adipocytes (immunoblot); assay type: cell-based; details: 3T3L1 cells, 0.75 mM FFA 24 h, then insulin
Akt 1/2 = test: Insulin-stimulated Akt phosphorylation in 3T3L1 adipocytes (immunoblot); assay type: cell-based; details: 3T3L1 cells, 0.75 mM FFA 24 h, then insulin
Glut4 = test: Insulin-induced GFP-Glut4 translocation in 3T3L1 adipocytes (confocal microscopy); assay type: cell-based; details: 0.75 mM palmitate 24 h, then 100 nM insulin 30 min
insulin receptor = target: T1, insulin receptor (Mus musculus, UniProt P15208); test: Autoradiography of radiolabeled insulin and palmitate binding to solubilized insulin receptor preparations; details: solubilized receptor from 3T3L1 adipocytes, autoradiograph
T1 construct: endogenous in cells; host or cells: 3T3-L1 adipocytes (membrane fraction solubilized with lithium diiodosalicylate / 0.1% Triton X-100)

Row | SMILES | Effect on insulin-stimulated phosphorylation of IRβ (insulin receptor β (IRβ)) | Effect on insulin stimulation of IRS-1 phosphorylation (IRS-1) | Effect on insulin-stimulated PI3K phosphorylation/activity (PI3 kinase p 85 α) | Effect on insulin-stimulated Akt phosphorylation/activation (Akt 1/2) | Effect on insulin-induced GFP-Glut4 translocation from cytosol to membrane (Glut4) | Effect on 125I-insulin binding to the receptor (insulin receptor)
1 | CCCCCCCCCCCCCCCC(=O)O [palmitate] | reduction of IRβ tyrosine phosphorylation; also recorded: dramatically reduced; also recorded: two-fold decrease | about two-fold decrease; also recorded: significantly inhibited | about two-fold decrease; also recorded: significantly inhibited | about two-fold decrease; also recorded: reduced insulin stimulation | completely blocked; also recorded: totally inhibited; also recorded: complete block | 
2 | CCCCCCCCCCCCCC(=O)O [myristate] |  |  |  |  |  | could not be reduced
3 | CCCCCCCCCCCCCCCCCC(=O)O [stearate] | did not exhibit such inhibition | no such inhibitory effect | no such inhibitory effect | no such inhibitory effect |  | 
